The subject of this assay is P388 leukemia ip, CD2F1 mice, survival T/C. In words: NCI In Vivo Anticancer Drug Screen. Data for tumor model P388 Leukemia (intraperitoneal) in CD2F1 (CDF1) mice. The note with it: T/C endpoint: median survival time, higher T/C = longer survival.
[1] abbreviates: dose: 100.0 mg/kg/injection, schedule: Q01DX009 (ip), vehicle: saline.
Where [2] appears, read: dose: 200.0 mg/kg/injection, schedule: Q01DX009 (ip), vehicle: Klucel (hydroxypropylcellulose) (HPC).
Where [3] appears, read: dose: 200.0 mg/kg/injection, schedule: Q01DX009 (ip), vehicle: saline with Tween-80.

The list does not hold the whole screen: it is rich in T/C values a quarter to a half above the control, in often repeated tests (any T/C) and in doses without a T/C. Other doses and runs of a compound stand elsewhere. T/C gives the treated animals as a percentage of the vehicle group. Some entries give survivors of the animals treated and no T/C: the source holds a T/C of zero for them, seemingly a mark for toxic or unscored doses. Some doses without a T/C left all or most animals alive at the check, yet need not have been tolerated: the source hardly ever lists a survival T/C far under the control, and the zero likely stands for such cases as well. Survivors were counted at the toxicity check, usually on the fifth day, unless a day is given; later deaths do not show. Schedules are NCI's codes, read here as Q, the interval in days (D) or hours (H), X, the number of doses. Some schedule codes hold Z or #, which are not explained here. Where survival is the endpoint, this PubChem deposit counts one and a half times the control or more as active, and values a quarter to a half above the control carry no call in these data; other NCI protocols may use other cut-offs. Some T/C values are followed by the survivors on the day toxicity was checked, most often the fifth; without a count, all were alive then.

Regarding `Cc1ncccc1[N+](=O)[O-]`, the survivor count runs as follows: (dose: 100.0 mg/kg/injection, schedule: Q01DX009 (ip), vehicle: saline + Tween-80 + alcohol) 6 of 6; (dose: 200.0 mg/kg/injection, schedule: Q01DX009 (ip), vehicle: saline + Tween-80 + alcohol) 0 of 6.

Regarding `C=CCNC(=S)NCCN(CCO)C(=S)NCC=C`, under setting [1], the survivor count is on record as 4 of 6.

On to `CNCCCCc1cc(-c2ccc([N+](=O)[O-])cc2)n[nH]1`, for which the T/C (dose: 200.0 mg/kg/injection, schedule: Q04DX003 (ip), vehicle: Klucel (hydroxypropylcellulose) (HPC)) is 126 % of control [5 of 6 alive]. For the same compound, the survivor count (dose: 400.0 mg/kg/injection, schedule: Q04DX003 (ip), vehicle: Klucel (hydroxypropylcellulose) (HPC)) is on record as 1 of 6.

Take `CCn1c2ccccc2c2cc(NC(=S)NC(=O)c3cccs3)ccc21`: the survivor count (dose: 50.0 mg/kg/injection, schedule: Q01DX005 (ip), vehicle: saline with Tween-80) is reported as 5 of 5.

Turning to `C[S+]1C2(C3CC4CC(C3)CC2C4)C12C1CC3CC(C1)CC2C3` (centres undefined), the survivor count (dose: 200.0 mg/kg/injection, schedule: Q01DX005 (ip), vehicle: distilled water + alcohol) was 0 of 5.

With `Cc1ccc(S(=O)(=O)NN=C2C(C)C(c3ccccc3)NC(c3ccccc3)C2C)cc1` (centres undefined), the survivor count is listed as 6 of 6 (dose: 50.0 mg/kg/injection, schedule: Q01DX001 (ip), vehicle: Klucel (hydroxypropylcellulose) (HPC)) and 6 of 6 (dose: 100.0 mg/kg/injection, schedule: Q01DX001 (ip), vehicle: Klucel (hydroxypropylcellulose) (HPC)).

For `COC(=O)C1c2cc3c(c(O)c2C(OC)CC1(C)O)C(=O)c1c(O)cc2c(c1C3=O)OC1OC2(C)C(O)C(N(C)C)C1O` (centres undefined), the T/C by setting is: (dose: 1.6 mg/kg/injection, schedule: Q01DX009 (ip), vehicle: other) 148 % of control; (dose: 2.5 mg/kg/injection, schedule: Q01DX009 (ip), vehicle: other) 142 % of control.

Regarding `CSCCC(C(=O)O)N1C(=O)C=CC1=O` (centres undefined), the survivor count is given as 0 of 6 (dose: 90.0 mg/kg/injection, schedule: Q01DX009 (ip), vehicle: saline with Tween-80) and 0 of 6 (dose: 180.0 mg/kg/injection, schedule: Q01DX009 (ip), vehicle: saline with Tween-80).

Consider `COc1ccc(Cc2nnc(C)c3c(C)[nH]nc23)cc1OC`, for which the survivor count under setting [2] is given as 6 of 6.

For `CCOc1ccc(N=C([Se])CC)cc1`, the survivor count (dose: 50.0 mg/kg/injection, schedule: Q01DX009 (ip), vehicle: Klucel (hydroxypropylcellulose) (HPC)) is listed as 0 of 6; the survivor count (dose: 100.0 mg/kg/injection, schedule: Q01DX009 (ip), vehicle: Klucel (hydroxypropylcellulose) (HPC)) was 0 of 6; the survivor count under setting [2] was 0 of 6.

As for `O=Cc1c[nH]c2ccc(NC(=O)OCc3ccccc3)cc12`, the survivor count under setting [3] is given as 6 of 6.

For the compound `COC(=O)C(N)CSCSCc1ccccc1` (centres undefined), for the setting “dose: 200.0 mg/kg/injection, schedule: Q01DX009 (ip), vehicle: saline”, the survivor count is 2 of 6.

For the compound `Cn1c(N)c(C(=O)/C=C/c2ccccc2)c(=O)n(C)c1=O`, the survivor count under setting [2] is 6 of 6.

As for `CCOC(=O)c1c[nH]c2oc(/C=N/N3CC(CN4CCOCC4)OC3=O)cc2c1=O` (centres undefined), the T/C (dose: 200.0 mg/kg/injection, schedule: Q01DX005 (ip), vehicle: acid diluted with saline) is 143 % of control; the T/C (dose: 200.0 mg/kg/injection, schedule: Q04DX002 (ip), vehicle: saline) was 131 % of control; the T/C (dose: 400.0 mg/kg/injection, schedule: Q04DX002 (ip), vehicle: saline) was 140 % of control. Further, the survivor count is 6 of 6 (dose: 400.0 mg/kg/injection, schedule: Q01DX005 (ip), vehicle: acid diluted with saline) and 0 of 6 (dose: 800.0 mg/kg/injection, schedule: Q01DX005 (ip), vehicle: acid diluted with saline).

With `CN(C)CCCN1CN(CCCN(C)C)CN(CCCN(C)C)C1`, the survivor count (dose: 200.0 mg/kg/injection, schedule: Q01DX005 (ip), vehicle: saline) is 1 of 5.

Turning to `CC(=O)Nc1ccc(/C=C/c2ccc(N=C=S)cc2S(=O)(=O)O)c(S(=O)(=O)O)c1`, the survivor count under setting [3] was 6 of 6.

As to `C[C@]12CC[C@@H]3c4ccc(OC(=O)Cc5ccc(N(CCCl)CCCl)cc5)cc4CC[C@H]3[C@@H]1CC[C@@H]2OC(=O)Cc1ccc(N(CCCl)CCCl)cc1`, under “dose: 400.0 mg/kg/injection, schedule: Q04DX003 (ip), vehicle: saline with Tween-80”, the T/C was 137 % of control.

With `CCc1cccc2c(NCCCCCCCCCCNc3c4ccccc4nc4c(CC)cccc34)c3ccccc3nc12`, the T/C by setting is: (dose: 5.0 mg/kg/injection, schedule: Q## X009 (ip), vehicle: lactic acid) 127 % of control; (dose: 10.0 mg/kg/injection, schedule: Q## X009 (ip), vehicle: lactic acid) 133 % of control. Further, the survivor count (dose: 20.0 mg/kg/injection, schedule: Q## X009 (ip), vehicle: lactic acid) is listed as 3 of 6.

`COc1cc(C(C)(C)C)cc(OC)c1C(O)(c1c(OC)cc(C(C)(C)C)cc1OC)c1c(OC)cc(C(C)(C)C)cc1OC`: under “dose: 50.0 mg/kg/injection, schedule: Q01DX009 (ip), vehicle: saline with Tween-80”, the T/C is 135 % of control [5 of 6 alive]. In addition, the survivor count under setting [3] is given as 0 of 6.

`CC(=O)NCCCCCCNC(C)=O`: the T/C under setting [1] was 125 % of control. Besides, the survivor count runs as follows: (dose: 4000.0 mg/kg/injection, schedule: Q01DX001 (ip), vehicle: saline) 0 of 10; (dose: 4000.0 mg/kg/injection, schedule: Q04DX003 (ip), vehicle: saline) 0 of 10.

Take `CCCCCCCCCCCCCCCC[As](CCCCCCCCCCCCCCCC)SCC1OC(OC(C)=O)C(OC(C)=O)C(OC(C)=O)C1OC(C)=O` (centres undefined): the T/C is 125 % of control (dose: 100.0 mg/kg/injection, schedule: Q01DX009 (ip), vehicle: saline with Tween-80) and 126 % of control under setting [3].

In the case of `O=C(O)C1(Cc2ccc(O)c(O)c2)NCCS1` (centres undefined), the survivor count (dose: 400.0 mg/kg/injection, schedule: Q01DX001 (ip), vehicle: Klucel (hydroxypropylcellulose) (HPC)) is reported as 0 of 6.

Source of the values: PubChem BioAssay AID330 (DTP/NCI, 2004).
